Laboratory results from the supplement of paper PMC10331698.
± gives the standard deviation of the averaged measurements. Most values lie at the level of the controls, where differences are scatter.

Experiments:
Experiment in all cases: level (log10 ratio to DMSO vehicle control); higher = higher biomarker level / cell amount than vehicle control
[1] = compound: FC(F)(F)C(F)(F)CNCC(F)(F)C(F)(F)F [Bis(1H,1H-perfluoropropyl)amine] (in DMSO); settings: 2200 nM
Protocol: (§1)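 BioMAP Diversity Plus panel of 12 human primary cell co-culture systems (3C, 4H, LPS, SAg, BT, BF4T, BE3C, CASM3C, HDF3CGF, KF3CT, MyoF, Mphg). Compounds were added 1 h before stimulation and left for 24 h (MyoF 48 h; BT 72 h for soluble read-outs or 6 d for IgG). Biomarkers were read by ELISA, cytotoxicity by SRB, PBMC viability and proliferation by Alamar Blue. Each well value was divided by the mean of 8 DMSO control wells on the same plate and log10 transformed; duplicate blinded samples were tested at 4 concentrations.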

[2] = compound: OCC(F)(F)C(F)(F)C(F)(F)C(F)(F)C(F)(F)C(F)(F)CO [1H,1H,8H,8H-Perfluorooctane-1,8-diol] (in DMSO); settings: 2200 nM
Protocol: as §1

[3] = compound: O=C(O)C(F)(OC(F)(F)C(F)(F)C(F)(F)F)C(F)(F)F [Ammonium perfluoro-2-methyl-3-oxahexanoate] (in Water)
Protocol: as §1

[4] = compound: OCC(F)(F)C(F)(F)C(F)(F)C(F)F [1H,1H,5H-Perfluoropentanol] (in DMSO); settings: 2200 nM
Protocol: as §1

[5] = compound: FC(F)(F)C(F)(F)C(F)(F)C(F)(F)CCI [1H,1H,2H,2H-Perfluorohexyl iodide] (in DMSO); settings: 2200 nM
Protocol: as §1

[6] = compound: C=C(C)C(=O)OCCC(F)(F)C(F)(F)C(F)(F)C(F)(F)C(F)(F)C(F)(F)F [6:2 Fluorotelomer methacrylate] (in DMSO); settings: 2200 nM
Protocol: as §1

[7] = compound: OCCCC(F)(F)C(F)(F)C(F)(F)C(F)(F)C(F)(F)C(F)(F)C(F)(F)C(F)(F)F [3-(Perfluorooctyl)propanol] (in DMSO); settings: 2200 nM
Protocol: as §1

[8] = compound: O=C(O)CCC(F)(F)C(F)(F)C(F)(F)F [3:3 Fluorotelomer carboxylic acid] (in DMSO); settings: 2200 nM
Protocol: as §1

[9] = compound: CNS(=O)(=O)C(F)(F)C(F)(F)C(F)(F)C(F)(F)C(F)(F)C(F)(F)C(F)(F)C(F)(F)F [N-Methylperfluorooctanesulfonamide] (in DMSO); settings: 2200 nM
Protocol: as §1

[10] = compound: O=C(O)C(F)(OC(F)(F)C(F)(OC(F)(F)C(F)(OC(F)(F)C(F)(F)C(F)(F)F)C(F)(F)F)C(F)(F)F)C(F)(F)F [Perfluoro-(2,5,8-trimethyl-3,6,9-trioxadodecanoic)acid] (in DMSO); settings: 370 nM
Protocol: as §1

[11] = compound: O=C(O)C(F)(F)C(F)(F)C(F)(F)OC(F)(C(F)(F)F)C(F)(F)F [Perfluoro-4-isopropoxybutanoic acid] (in DMSO); settings: 2200 nM
Protocol: as §1

[12] = compound: O=S(=O)(O)C(F)(F)C(F)(F)C(F)(F)C(F)(F)F [Perfluorobutanesulfonic acid] (in DMSO)
Protocol: as §1

[13] = compound: OCC(F)(F)C(F)(F)C(F)(F)C(F)(F)C(F)(F)C(F)(F)F [6:1 Fluorotelomer alcohol] (in DMSO); settings: 2200 nM
Protocol: as §1

Hexafluoroglutaric acid = compound: O=C(O)C(F)(F)C(F)(F)C(F)(F)C(=O)O [Hexafluoroglutaric acid] (in DMSO)
Protocol: as §1

[14] = compound: FC(F)(F)COC(OCC(F)(F)F)OCC(F)(F)F [tris(Trifluoroethoxy)methane] (in DMSO); settings: 2200 nM
Protocol: as §1

[15] = compound: OCC(F)(F)OC(F)(F)C(F)(F)OC(F)(F)CO [1H,1H,8H,8H-Perfluoro-3,6-dioxaoctane-1,8-diol] (in DMSO); settings: 2200 nM
Protocol: as §1

Perfluorohexanoic acid = compound: O=C(O)C(F)(F)C(F)(F)C(F)(F)C(F)(F)C(F)(F)F [Perfluorohexanoic acid] (in DMSO)
Protocol: as §1

Row | Test System | level (log10) [1] | level (log10) [2] | level (log10) ([3]; 2200 nM) | level (log10) ([3]; 6700 nM) | level (log10) ([3]; 20000 nM) | level (log10) ([3]; 60000 nM) | level (log10) [4] | level (log10) [5] | level (log10) [6] | level (log10) [7] | level (log10) [8] | level (log10) [9] | level (log10) [10] | level (log10) [11] | level (log10) ([12]; 2200 nM) | level (log10) ([12]; 6700 nM) | level (log10) ([12]; 20000 nM) | level (log10) ([12]; 60000 nM) | level (log10) [13] | level (log10) (Hexafluoroglutaric acid; 2200 nM) | level (log10) (Hexafluoroglutaric acid; 6700 nM) | level (log10) (Hexafluoroglutaric acid; 20000 nM) | level (log10) (Hexafluoroglutaric acid; 60000 nM) | level (log10) [14] | level (log10) [15] | level (log10) (Perfluorohexanoic acid; 2200 nM) | level (log10) (Perfluorohexanoic acid; 6700 nM) | level (log10) (Perfluorohexanoic acid; 20000 nM) | level (log10) (Perfluorohexanoic acid; 60000 nM)
1 | SAg:PBMC Cytotoxicity | 0.001 ± 0.018 | -0.0135 ± 0.012 | -0.006 ± 0.023 | -0.011 ± 0.013 | -0.024 ± 0.013 | -0.0035 ± 0.0064 | 0.009 ± 0.023 | 0.043 ± 0.035 | 0.0245 ± 0.026 | -0.0215 ± 0.011 | -0.02 ± 0.024 | -0.0255 ± 0.049 | 0.019 ± 0.058 | 0.0085 ± 0.026 | 0.004 ± 0.0028 | -0.029 ± 0.038 | -0.0315 ± 0.036 | 0.023 ± 0.024 | -0.002 ± 0.031 | 0.004 ± 0.0071 | 0.0035 ± 0.0078 | 0.014 ± 0.0042 | -0.005 ± 0.058 | -0.0005 ± 0.0021 | -0.0135 ± 0.026 | 0.004 ± 0.064 | -0.0155 ± 0.046 | 0.002 ± 0.0028 | 0.009 ± 0.073
2 | LPS:IL-1alpha | -0.0235 ± 0.012 | -0.005 ± 0.034 | 0.0815 ± 0.11 | 0.0325 ± 0.04 | 0.0475 ± 0.015 | 0.019 ± 0.062 | -0.0395 ± 0.013 | 0.032 ± 0.031 | -0.0015 ± 0.033 | 0.0375 ± 0.03 | 0.01 ± 0.057 | 0.0455 ± 0.025 | 0.01 ± 0.035 | 0.019 ± 0.062 | -0.001 ± 0.095 | -0.0445 ± 0.067 | -0.0235 ± 0.013 | -0.0265 ± 0.05 | 0.0185 ± 0.016 | 0.0115 ± 0.0035 | -0.023 ± 0.02 | -0.0325 ± 0.0064 | 0.002 ± 0.037 | 0.0005 ± 0.081 | -0.0165 ± 0.046 | 0.0115 ± 0.012 | 0.0135 ± 0.0064 | 0.0145 ± 0.0092 | -0.003 ± 0.02
3 | HDF3CGF:EGFR | 0.022 ± 0.05 | -0.0305 ± 0.0035 | 0.012 ± 0.013 | -0.017 ± 0.014 | 0.0145 ± 0.026 | 0.0535 ± 0.005 | 0.006 ± 0.013 | 0.016 ± 0.0085 | 0.0265 ± 0.037 | -0.032 ± 0.0028 | -0.0105 ± 0.011 | 0.027 ± 0.027 | 0.0095 ± 0.073 | 0.007 ± 0.0042 | -0.0145 ± 0.061 | 0.0105 ± 0.005 | -0.032 ± 0.048 | -0.0205 ± 0.032 | 0.003 ± 0.057 | -0.0215 ± 0.028 | -0.021 ± 0.061 | -0.0285 ± 0.056 | -0.021 ± 0.072 | 0.0055 ± 0.015 | 0.0205 ± 0.0092 | -0.093 ± 0.15 | 0.027 ± 0.017 | 0.03 ± 0.021 | 0.003 ± 0.081
4 | KF3CT:uPA | 0.011 ± 0.024 | 0.005 ± 0.0071 | -0.01 ± 0.031 | -0.0275 ± 0.043 | -0.009 ± 0.0099 | -0.0175 ± 0.019 | -0.0085 ± 0.013 | 0.0105 ± 0.013 | -0.016 ± 0.014 | -0.001 ± 0.047 | 0.002 ± 0.0014 | 0.02 ± 0.0042 | -0.0005 ± 0.012 | 0.001 ± 0.0057 | -0.0045 ± 0.032 | -0.0275 ± 0.029 | -0.0215 ± 0.00071 | -0.0035 ± 0.00071 | -0.0195 ± 0.013 | -0.017 ± 0.013 | -0.019 ± 0.024 | -0.0055 ± 0.0035 | -0.011 ± 0.011 | 0.011 ± 0.018 | 0.003 ± 0.0057 | -0.0095 ± 0.021 | 0.0125 ± 0.0064 | -0.004 ± 0.0085 | 0.016 ± 0.0099
5 | LPS:CD69 | 0.044 ± 0.02 | 0.0115 ± 0.00071 | 0.008 ± 0.011 | 0.03 ± 0.0028 | 0 ± 0.028 | -0.0315 ± 0.04 | 0.01 ± 0.034 | 0.0025 ± 0.019 | -0.0645 ± 0.0064 | -0.0015 ± 0.021 | -0.0225 ± 0.056 | -0.032 ± 0.0071 | -0.0085 ± 0.0092 | 0.0155 ± 0.037 | 0.039 ± 0.055 | -0.0405 ± 0.061 | 0.0155 ± 0.05 | 0.0825 ± 0.023 | -0.008 ± 0.0042 | -0.002 ± 0.034 | -0.003 ± 0.011 | -0.014 ± 0.0099 | 0.0075 ± 0.0021 | -0.024 ± 0.064 | 0.028 ± 0.042 | 0.01 | 0.0025 ± 0.0078 | -0.0165 ± 0.0021 | -0.0295 ± 0.013
6 | 4H:CD106/VCAM-1 | 0.014 ± 0.0099 | 0.007 ± 0.0085 | -0.0365 ± 0.0035 | -0.0455 ± 0.005 | -0.0365 ± 0.018 | -0.037 ± 0.021 | 0.0145 ± 0.012 | -0.0025 ± 0.0035 | -0.002 ± 0.0099 | 0.0175 ± 0.0064 | 0.0065 ± 0.044 | 0.028 ± 0.0099 | 0.0485 ± 0.044 | 0.0055 ± 0.0064 | 0 ± 0.0071 | -0.024 ± 0.016 | -0.029 ± 0.028 | 0.001 ± 0.033 | 0.013 ± 0.051 | 0.0045 ± 0.021 | -0.005 ± 0.014 | -0.005 ± 0.03 | -0.0045 ± 0.012 | -0.01 ± 0.0071 | 0.002 ± 0.051 | 0.053 ± 0.044 | -0.006 ± 0.028 | 0.0095 ± 0.00071 | 0.041 ± 0.045
7 | 4H:VEGFR2 | 0.011 ± 0.0099 | 0.037 ± 0.025 | 0.025 ± 0.025 | 0.0035 ± 0.04 | 0.007 ± 0.014 | 0.0095 ± 0.018 | 0.058 ± 0.024 | -0.0085 ± 0.097 | -0.0145 ± 0.061 | 0.0155 ± 0.05 | -0.003 ± 0.0028 | -0.0025 ± 0.049 | -0.0005 ± 0.043 | 0.009 ± 0.034 | -0.0095 ± 0.061 | -0.049 ± 0.04 | -0.0215 ± 0.026 | -0.012 ± 0.0071 | 0.004 ± 0.064 | 0.003 ± 0.0014 | 0.0005 ± 0.016 | -0.04 ± 0.0099 | -0.0095 ± 0.0078 | 0.007 ± 0.0042 | 0.0205 ± 0.066 | 0.014 ± 0.034 | -0.003 ± 0.021 | -0.009 ± 0.014 | -0.001 ± 0.024
